Data taken from paper PMC10617773.
No constants are given. Whether binding was seen depends on the method and setting. For some assays here: In cells and extracts the contact can be indirect. Some binding calls cover weakened binding; strength is not graded here. Blank lines part the entries; values can stand above or below the molecule they belong to.

The chains behind the UniProt entries cited, without tags or fusion partners.
UniProt Q96P20: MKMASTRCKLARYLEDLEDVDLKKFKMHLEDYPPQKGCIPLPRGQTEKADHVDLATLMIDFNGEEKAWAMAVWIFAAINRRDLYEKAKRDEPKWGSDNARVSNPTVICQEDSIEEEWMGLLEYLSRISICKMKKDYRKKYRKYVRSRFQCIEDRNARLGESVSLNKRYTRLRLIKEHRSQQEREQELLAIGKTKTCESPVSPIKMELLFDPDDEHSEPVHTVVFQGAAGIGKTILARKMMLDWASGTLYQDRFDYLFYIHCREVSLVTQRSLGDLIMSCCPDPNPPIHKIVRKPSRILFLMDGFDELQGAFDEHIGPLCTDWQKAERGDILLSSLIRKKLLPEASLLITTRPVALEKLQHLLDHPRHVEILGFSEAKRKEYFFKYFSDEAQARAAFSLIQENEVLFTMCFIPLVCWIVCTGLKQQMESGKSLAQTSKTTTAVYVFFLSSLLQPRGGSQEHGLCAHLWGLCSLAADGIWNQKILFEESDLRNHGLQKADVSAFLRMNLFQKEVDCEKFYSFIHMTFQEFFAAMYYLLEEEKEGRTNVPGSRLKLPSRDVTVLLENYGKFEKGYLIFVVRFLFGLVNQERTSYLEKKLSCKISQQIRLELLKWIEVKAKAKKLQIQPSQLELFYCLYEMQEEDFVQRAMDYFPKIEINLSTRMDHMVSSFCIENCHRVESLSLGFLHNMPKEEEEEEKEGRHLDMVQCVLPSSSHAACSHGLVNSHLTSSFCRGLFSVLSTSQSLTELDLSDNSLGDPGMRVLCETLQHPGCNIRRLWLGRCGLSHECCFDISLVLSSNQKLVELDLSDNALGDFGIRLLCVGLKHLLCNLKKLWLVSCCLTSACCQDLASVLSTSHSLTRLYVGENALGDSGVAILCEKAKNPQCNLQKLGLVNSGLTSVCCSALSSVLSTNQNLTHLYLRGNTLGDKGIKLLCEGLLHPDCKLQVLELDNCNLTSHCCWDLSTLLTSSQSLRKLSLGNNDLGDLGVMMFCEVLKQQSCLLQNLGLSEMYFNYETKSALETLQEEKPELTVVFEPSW
UniProt P53350: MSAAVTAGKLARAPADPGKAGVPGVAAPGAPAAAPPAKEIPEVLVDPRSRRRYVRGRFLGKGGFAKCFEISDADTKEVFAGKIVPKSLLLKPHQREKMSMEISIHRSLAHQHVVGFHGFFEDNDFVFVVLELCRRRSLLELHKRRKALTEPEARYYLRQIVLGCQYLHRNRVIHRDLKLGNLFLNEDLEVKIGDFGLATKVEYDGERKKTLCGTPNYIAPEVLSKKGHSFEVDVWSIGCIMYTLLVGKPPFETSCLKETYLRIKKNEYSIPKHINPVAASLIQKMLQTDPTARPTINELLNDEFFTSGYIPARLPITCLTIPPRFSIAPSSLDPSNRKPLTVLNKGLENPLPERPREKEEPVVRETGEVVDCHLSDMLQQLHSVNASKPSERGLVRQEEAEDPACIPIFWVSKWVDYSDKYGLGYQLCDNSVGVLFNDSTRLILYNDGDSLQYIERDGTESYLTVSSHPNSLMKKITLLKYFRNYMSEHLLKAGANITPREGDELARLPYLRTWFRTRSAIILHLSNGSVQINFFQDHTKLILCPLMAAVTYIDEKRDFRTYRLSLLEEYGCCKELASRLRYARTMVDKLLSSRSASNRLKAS

Experiments:
[1] = target: recombinant full-length NLRP3 tagged with GST (UniProt Q96P20); experiment: BLI; Octet RED96, 25°C, 1,000 rpm; GST-NLRP3 (7.2 nM) immobilized on anti-GST biosensors; His-PLK1 as analyte at 500–15.125 nM, 180 s association and 180 s dissociation; 100 mM HEPES, 100 mM NaCl, pH 7.4, 0.01% BSA, 0.01% Tween-20; both purified
[2] = target: T1, NLR family pyrin domain-containing 3 (NLRP3), endogenous murine (mouse (endogenous in BMDMs and iBMDMs)), Q8R4B8; experiment: proximity ligation; in situ PLA (Duolink) on fixed BMDMs with antibodies against PLK1 and NLRP3; cells primed (100 ng/mL LPS, 5 hours) and activated (5 mM ATP, 30 minutes), with or without 3 μM cyclapolin 9 at the activation stage; details: remark: other sources report otherwise
T1 chain: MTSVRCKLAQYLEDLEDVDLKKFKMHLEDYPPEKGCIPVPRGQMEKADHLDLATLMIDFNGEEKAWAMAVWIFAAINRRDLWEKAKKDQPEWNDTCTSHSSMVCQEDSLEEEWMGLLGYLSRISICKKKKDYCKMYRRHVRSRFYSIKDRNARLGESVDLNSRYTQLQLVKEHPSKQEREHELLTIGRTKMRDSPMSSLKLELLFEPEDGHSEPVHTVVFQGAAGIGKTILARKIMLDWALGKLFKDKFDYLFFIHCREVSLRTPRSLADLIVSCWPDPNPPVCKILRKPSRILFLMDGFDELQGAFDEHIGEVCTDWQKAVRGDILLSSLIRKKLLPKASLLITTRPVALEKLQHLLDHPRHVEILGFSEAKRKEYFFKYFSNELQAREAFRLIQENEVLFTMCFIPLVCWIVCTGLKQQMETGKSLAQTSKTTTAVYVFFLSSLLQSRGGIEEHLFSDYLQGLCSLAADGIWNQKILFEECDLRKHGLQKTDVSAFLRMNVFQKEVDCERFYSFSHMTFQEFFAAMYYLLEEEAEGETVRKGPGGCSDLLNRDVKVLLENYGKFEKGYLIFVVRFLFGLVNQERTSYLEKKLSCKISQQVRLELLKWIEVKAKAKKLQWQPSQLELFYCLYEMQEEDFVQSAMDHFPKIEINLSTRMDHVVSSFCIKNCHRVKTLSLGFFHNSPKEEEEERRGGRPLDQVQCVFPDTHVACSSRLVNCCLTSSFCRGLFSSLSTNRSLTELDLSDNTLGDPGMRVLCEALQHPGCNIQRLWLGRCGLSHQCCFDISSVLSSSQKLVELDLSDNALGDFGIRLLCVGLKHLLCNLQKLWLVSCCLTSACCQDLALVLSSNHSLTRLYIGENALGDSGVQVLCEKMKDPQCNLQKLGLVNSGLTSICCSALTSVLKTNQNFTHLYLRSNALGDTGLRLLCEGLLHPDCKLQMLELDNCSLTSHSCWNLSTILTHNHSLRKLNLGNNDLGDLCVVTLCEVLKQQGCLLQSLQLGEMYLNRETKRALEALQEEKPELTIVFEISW

binding [1]: binds
Molecule: recombinant full-length PLK1 (tagged with His) (from UniProt P53350 1-603)

binding [2]: binds
B1: Polo-like kinase 1 (PLK1), endogenous murine, Q07832 1-603 (protein)
chain: MNAAAKAGKLARAPADLGKGGVPGDAVPGAPVAAPLAKEIPEVLVDPRSRRQYVRGRFLGKGGFAKCFEISDADTKEVFAGKIVPKSLLLKPHQKEKMSMEISIHRSLAHQHVVGFHDFFEDSDFVFVVLELCRRRSLLELHKRRKALTEPEARYYLRQIVLGCQYLHRNQVIHRDLKLGNLFLNEDLEVKIGDFGLATKVEYEGERKKTLCGTPNYIAPEVLSKKGHSFEVDVWSIGCIMYTLLVGKPPFETSCLKETYLRIKKNEYSIPKHINPVAASLIQKMLQTDPTARPTIHELLNDEFFTSGYIPARLPITCLTIPPRFSIAPSSLDPSSRKPLKVLNKGVENPLPDRPREKEEPVVRETNEAIECHLSDLLQQLTSVNASKPSERGLVRQEEAEDPACIPIFWVSKWVDYSDKYGLGYQLCDNSVGVLFNDSTRLILYNDGDSLQYIERDGTESYLTVSSHPNSLMKKITLLNYFRNYMSEHLLKAGANITPREGDELARLPYLRTWFRTRSAIILHLSNGTVQINFFQDHTKLILCPLMAAVTYINEKRDFQTYRLSLLEEYGCCKELASRLRYARTMVDKLLSSRSASNRLKAS
